Here are results for 7 substances from article PMC9373822.

Sequences of proteins named here, by UniProt entry; tags and fusion partners are left off.
UniProt Q02111: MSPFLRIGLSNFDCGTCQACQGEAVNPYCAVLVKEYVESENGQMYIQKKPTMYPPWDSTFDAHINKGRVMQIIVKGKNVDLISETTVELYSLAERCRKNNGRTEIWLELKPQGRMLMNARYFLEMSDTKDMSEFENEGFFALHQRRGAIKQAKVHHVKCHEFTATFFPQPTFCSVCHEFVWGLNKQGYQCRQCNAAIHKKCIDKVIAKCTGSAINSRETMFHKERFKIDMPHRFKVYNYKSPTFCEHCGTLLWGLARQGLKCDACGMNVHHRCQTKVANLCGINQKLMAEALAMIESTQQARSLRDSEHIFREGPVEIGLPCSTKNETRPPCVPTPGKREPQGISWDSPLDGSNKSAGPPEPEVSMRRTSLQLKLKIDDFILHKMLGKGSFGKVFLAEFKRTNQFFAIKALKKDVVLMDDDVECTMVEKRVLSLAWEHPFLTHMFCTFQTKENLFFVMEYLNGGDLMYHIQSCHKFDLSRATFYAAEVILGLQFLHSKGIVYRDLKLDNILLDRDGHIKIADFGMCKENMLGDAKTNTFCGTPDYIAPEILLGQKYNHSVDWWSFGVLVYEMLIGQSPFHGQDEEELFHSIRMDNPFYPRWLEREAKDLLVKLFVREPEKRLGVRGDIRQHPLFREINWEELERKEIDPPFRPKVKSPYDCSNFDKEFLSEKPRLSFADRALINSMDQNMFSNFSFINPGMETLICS
UniProt Q12778: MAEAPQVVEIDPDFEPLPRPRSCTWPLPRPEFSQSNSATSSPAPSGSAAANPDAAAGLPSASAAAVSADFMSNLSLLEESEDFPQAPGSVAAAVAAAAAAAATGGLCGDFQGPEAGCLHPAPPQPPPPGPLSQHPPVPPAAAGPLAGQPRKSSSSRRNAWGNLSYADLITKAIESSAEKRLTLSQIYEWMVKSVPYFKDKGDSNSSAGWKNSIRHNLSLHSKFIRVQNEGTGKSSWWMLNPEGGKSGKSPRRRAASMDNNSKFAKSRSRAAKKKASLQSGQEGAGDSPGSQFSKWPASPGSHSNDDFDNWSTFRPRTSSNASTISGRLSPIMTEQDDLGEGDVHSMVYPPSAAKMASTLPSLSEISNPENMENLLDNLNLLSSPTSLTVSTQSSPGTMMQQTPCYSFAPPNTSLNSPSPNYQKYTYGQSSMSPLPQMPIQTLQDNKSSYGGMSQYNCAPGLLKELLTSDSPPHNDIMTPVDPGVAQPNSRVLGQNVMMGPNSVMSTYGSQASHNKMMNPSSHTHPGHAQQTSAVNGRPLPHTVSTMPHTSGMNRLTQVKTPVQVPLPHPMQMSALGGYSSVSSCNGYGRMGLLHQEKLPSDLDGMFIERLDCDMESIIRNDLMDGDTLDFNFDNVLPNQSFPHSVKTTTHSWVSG
UniProt Q99JP0: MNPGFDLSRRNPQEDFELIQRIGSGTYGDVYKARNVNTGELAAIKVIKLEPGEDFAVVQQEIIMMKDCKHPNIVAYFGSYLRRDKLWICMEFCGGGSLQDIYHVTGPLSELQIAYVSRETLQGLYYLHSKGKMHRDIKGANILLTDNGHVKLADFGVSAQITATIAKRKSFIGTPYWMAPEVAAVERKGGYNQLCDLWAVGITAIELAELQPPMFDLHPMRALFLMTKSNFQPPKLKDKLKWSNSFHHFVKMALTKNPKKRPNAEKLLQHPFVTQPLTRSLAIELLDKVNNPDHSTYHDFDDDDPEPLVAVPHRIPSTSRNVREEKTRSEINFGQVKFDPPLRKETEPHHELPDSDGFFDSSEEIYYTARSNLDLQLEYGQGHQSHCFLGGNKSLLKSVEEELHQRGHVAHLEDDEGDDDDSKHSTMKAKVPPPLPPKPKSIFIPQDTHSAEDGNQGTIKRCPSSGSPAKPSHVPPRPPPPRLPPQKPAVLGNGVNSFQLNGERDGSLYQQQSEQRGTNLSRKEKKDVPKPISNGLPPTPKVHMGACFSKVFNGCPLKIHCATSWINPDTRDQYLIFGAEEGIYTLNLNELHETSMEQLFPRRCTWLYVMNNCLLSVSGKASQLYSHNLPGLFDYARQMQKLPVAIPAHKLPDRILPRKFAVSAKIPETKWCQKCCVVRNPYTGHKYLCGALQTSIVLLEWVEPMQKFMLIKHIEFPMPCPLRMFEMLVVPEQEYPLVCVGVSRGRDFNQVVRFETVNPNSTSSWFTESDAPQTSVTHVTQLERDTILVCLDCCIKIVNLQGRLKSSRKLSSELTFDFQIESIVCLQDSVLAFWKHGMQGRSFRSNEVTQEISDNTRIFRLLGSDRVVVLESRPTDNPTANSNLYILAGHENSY
UniProt Q9R1E0: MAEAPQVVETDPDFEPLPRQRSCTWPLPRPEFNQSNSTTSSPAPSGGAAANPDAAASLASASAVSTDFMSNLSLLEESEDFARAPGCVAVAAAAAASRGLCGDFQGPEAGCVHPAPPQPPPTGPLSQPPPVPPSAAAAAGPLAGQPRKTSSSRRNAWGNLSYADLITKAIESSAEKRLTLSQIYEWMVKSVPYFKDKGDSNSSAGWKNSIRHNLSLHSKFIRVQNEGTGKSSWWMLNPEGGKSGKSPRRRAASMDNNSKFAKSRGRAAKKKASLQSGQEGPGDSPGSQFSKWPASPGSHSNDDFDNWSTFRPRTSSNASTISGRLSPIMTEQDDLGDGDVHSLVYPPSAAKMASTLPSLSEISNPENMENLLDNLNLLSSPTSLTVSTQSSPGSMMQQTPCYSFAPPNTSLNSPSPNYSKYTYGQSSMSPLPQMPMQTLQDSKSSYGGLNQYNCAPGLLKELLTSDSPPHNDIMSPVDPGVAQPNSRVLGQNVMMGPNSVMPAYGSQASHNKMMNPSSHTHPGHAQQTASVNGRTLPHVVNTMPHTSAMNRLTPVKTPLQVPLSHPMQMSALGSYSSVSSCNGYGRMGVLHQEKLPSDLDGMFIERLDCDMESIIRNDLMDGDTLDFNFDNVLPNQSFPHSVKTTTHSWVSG
UniProt Q8IVH8: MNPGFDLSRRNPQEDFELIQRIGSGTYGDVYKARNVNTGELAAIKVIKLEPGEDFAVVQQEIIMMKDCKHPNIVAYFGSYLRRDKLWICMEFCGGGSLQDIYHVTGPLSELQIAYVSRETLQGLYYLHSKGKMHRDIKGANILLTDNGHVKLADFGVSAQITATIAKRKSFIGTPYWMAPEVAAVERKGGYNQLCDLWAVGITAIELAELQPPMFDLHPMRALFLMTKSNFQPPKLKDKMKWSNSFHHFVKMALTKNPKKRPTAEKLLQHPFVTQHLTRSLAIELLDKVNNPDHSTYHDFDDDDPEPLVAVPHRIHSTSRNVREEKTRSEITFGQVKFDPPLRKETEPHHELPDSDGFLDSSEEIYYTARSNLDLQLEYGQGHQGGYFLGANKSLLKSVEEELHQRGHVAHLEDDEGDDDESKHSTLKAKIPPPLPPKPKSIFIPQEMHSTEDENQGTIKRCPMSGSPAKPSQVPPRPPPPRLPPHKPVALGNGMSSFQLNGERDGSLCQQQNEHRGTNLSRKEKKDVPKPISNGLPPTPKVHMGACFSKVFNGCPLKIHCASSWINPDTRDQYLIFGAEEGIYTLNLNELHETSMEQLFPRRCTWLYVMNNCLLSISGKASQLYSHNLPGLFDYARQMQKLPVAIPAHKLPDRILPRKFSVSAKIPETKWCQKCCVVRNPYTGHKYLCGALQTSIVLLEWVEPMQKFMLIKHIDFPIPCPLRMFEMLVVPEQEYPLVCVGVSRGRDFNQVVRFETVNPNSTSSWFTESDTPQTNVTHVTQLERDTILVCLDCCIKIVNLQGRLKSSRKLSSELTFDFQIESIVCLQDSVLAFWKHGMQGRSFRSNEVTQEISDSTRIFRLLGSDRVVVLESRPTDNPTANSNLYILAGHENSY

The target in experiment [1] is T1, endogenous IKKβ of murine T cells (mouse (endogenous in murine T cells)) (UniProt O88351).
T1 sequence: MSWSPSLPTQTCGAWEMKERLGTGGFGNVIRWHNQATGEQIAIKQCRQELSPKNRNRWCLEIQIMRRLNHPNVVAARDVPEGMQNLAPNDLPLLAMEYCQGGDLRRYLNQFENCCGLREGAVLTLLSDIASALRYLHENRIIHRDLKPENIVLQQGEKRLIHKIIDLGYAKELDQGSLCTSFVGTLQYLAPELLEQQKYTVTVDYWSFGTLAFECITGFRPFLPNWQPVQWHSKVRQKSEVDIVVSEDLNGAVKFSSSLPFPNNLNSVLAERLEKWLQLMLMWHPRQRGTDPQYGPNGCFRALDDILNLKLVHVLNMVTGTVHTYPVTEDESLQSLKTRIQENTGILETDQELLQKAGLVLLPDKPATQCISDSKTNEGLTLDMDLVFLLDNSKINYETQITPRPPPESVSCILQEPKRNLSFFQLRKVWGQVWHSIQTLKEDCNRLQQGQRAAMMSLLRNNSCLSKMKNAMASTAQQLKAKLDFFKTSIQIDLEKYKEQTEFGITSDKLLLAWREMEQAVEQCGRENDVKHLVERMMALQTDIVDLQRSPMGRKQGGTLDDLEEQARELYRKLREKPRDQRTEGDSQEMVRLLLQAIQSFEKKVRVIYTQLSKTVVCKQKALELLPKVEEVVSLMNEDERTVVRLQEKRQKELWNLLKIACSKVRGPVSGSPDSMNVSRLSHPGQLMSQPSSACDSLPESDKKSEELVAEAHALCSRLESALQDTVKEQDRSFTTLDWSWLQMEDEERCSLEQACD
As to the kind of experiment: proximity ligation; in situ PLA (Duolink) in T cells from wild-type, Lck-GLK Tg and Lck-GLK Tg/PKCθ KO mice; stimulated with anti-CD3 antibodies plus streptavidin (3 μg/ml); within 40 nm.

Experiment [2] concerns the target endogenous PKCθ of murine T cells (mouse (endogenous in murine T cells)) (UniProt Q02111). Described as above.
Another experiment has as its target T2, CFP-fused IKKβ (UniProt O14920).
T2 sequence: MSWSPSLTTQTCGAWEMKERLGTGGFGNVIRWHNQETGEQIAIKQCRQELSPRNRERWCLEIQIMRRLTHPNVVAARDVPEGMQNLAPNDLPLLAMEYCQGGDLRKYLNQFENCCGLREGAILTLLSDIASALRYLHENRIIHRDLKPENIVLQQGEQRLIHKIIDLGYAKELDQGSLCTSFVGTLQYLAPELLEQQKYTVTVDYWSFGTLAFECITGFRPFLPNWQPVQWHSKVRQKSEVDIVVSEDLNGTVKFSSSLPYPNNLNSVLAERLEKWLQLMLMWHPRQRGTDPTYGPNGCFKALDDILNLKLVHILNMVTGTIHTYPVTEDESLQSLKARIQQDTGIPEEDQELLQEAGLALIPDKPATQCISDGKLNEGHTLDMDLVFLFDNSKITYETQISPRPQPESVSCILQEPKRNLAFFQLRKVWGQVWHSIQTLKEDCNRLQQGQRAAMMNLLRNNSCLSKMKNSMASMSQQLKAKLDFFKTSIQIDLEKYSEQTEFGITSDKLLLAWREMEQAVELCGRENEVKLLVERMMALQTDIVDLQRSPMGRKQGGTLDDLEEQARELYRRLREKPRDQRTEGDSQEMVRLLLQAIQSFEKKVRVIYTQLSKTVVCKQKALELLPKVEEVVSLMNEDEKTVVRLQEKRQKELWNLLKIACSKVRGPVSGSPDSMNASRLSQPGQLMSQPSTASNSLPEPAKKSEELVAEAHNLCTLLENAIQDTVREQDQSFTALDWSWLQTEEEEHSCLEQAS
As to the kind of experiment: FRET or BRET; YFP-FoxO1 and CFP-IKKβ co-transfected into HEK293T cells; plate reader; signal within 8 nm.

Experiment [3] has as its target T1, endogenous IKKβ of murine T cells (mouse (endogenous in murine T cells)). As to the kind of experiment: proximity ligation; in situ PLA (Duolink) of endogenous proteins in iTreg cells differentiated in vitro from T cells of wild-type and Lck-GLK Tg mice; within 40 nm.
Experiment [4] addresses T3, HA-tagged IKKβ (UniProt O14920).
T3 sequence: T2 sequence
As to the kind of experiment: co-IP; lysates of transfected HEK293T cells; tagged proteins, immunoblotting; performed as in ref. 13.

Experiment [5] deals with T3, HA-tagged IKKβ. As to the kind of experiment: AlphaScreen or HTRF; ALPHA with donor/acceptor AlphaLISA beads in lysates of HEK293T transfectants; signal within 200 nm.
The target in another experiment is T4, GST-tagged IKKβ (UniProt O14920).
T4 sequence: T2 sequence
As to the kind of experiment: pull-down; in vitro binding assay (GST pulldown) with purified Flag-tagged FoxO1 and GST-tagged IKKβ; both purified.

The target of another experiment is Flag-tagged FoxO1 (UniProt Q12778). As to the kind of experiment: AlphaScreen or HTRF; ALPHA with donor/acceptor AlphaLISA beads in lysates of HEK293T transfectants; signal within 200 nm.

These are yes or no findings as the source states them, for the method shown. For some assays here: Binding seen in cells or lysates may run through a third protein. Some results given as binding are weak or reduced against the parent protein; the word gives no strength. For some assays here: Tags and fused reporters may be left off the sequences shown.

For the substance “endogenous GLK of wild-type murine T cells (from UniProt Q99JP0 1-894) (enzyme)”, the results for the binding result in experiment [1] and in experiment [2] were “no binding” and “binds”, respectively.

Turning to “YFP-fused FoxO1 (from UniProt Q12778 1-655)”, in the experiment with CFP-fused IKKβ, the binding entry is given as “binds”.

Turning to “endogenous FoxO1 of murine iTreg cells (from UniProt Q9R1E0 1-652)”, the binding result in experiment [3] is given as “binds”.

As to “Flag-tagged FoxO1 (from UniProt Q12778 1-655)”, the binding result in the experiment with HA-tagged IKKβ [4] and with HA-tagged IKKβ [5] was “binds” throughout.

On to “GLK of Lck-GLK transgenic T cells (full-length human GLK transgene) (from UniProt Q8IVH8 1-894) (enzyme)”, for which the binding result in experiment [1] and in experiment [2] was “binds” in each case.

On to “Purified Flag-tagged FoxO1 (from UniProt Q12778 1-655)”, for which, in the experiment with GST-tagged IKKβ, the binding entry is “binds”.

“Flag-tagged GLK (from UniProt Q8IVH8 1-894) (enzyme)”: the figures for the binding result with HA-tagged IKKβ [4] and in the experiment with Flag-tagged FoxO1 were “binds” and “no binding”, respectively.
